Measurements: PubChem BioAssay AID504834 (National Center for Advancing Translational Sciences (NCATS), 2011)
What follows is the remainder of the data, with few or none of the hits. Inconclusive results are not listed. Active and inactive are the calls of the source. Calls follow the shape of the dose curve; as a rule, active = well fitted inhibition curve with a large enough effect; inconclusive = small, poorly fitted or top-dose-only effect, or another doubt; inactive = no such curve, though single readings can be large or run the other way.

assay: Primary qHTS for delayed death inhibitors of the malarial parasite plastid, 96 hour incubation; details: P. falciparum luciferase reporter growth; at 28.7 µM (top of the series)
Description: The goal of this screen is to discover new antimalarial compounds that act by inhibiting the development of the apicoplast in the malarial parasite Plasmodium falciparum. The biochemical processes that make this organelle essential for erythrocytic stage parasites are not well understood. However, antibiotics such as azithromycin and tetracycline, which target the apicoplast translational machinery, have a potent antimalarial effect.
We have developed a cell-based assay that measures parasite growth based on the expression of an integrated copy of a firefly luciferase reporter. To detect small molecules that cause this "delayed death" phenotype, erythrocytes infected with the luciferase-expressing parasites were incubated with compounds for either one or two generations, corresponding to 48 and 96 hours, respectively. Compounds that inhibit parasite growth in the second generation, but not the first, should be enriched in antimalarials that target the apicoplast. Growth inhibition is detected by a decrease in luciferase activity. […]
Four microliters of infected erythrocytes (2% hematocrit, 0.05% parasitemia final concentration) in culture medium were dispensed and the plates incubated for 96 hours at 37 C in 5% CO2. Two microliters of luciferase detection reagent was added and luminescence was detected by a ViewLux (PerkinElmer) reader.
% is scaled to controls: 0 for no effect and ±100 for the full control effect.

Row | Compound | activity change, negative = inhibition
1 | Cc1cc(=O)oc2cc(OCc3ccccc3)ccc12 | inactive: 0%
